The entries are a selection whose mix differs from that of the whole data set.
Biological target: furin, P09958
Assay: furin cleavage Z-score vs untreated control; higher = more cleavage, active = 3.5 or more, inactive = 1 or less, 8 variable residues between constant flanks
Method in brief: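 Purified furin digested bead-held 8-mer peptide–cDNA fusions at 1:10 enzyme:substrate in 0.01 ml of 50 mM HEPES pH 7.5 with CaCl2 and NaCl for 7.5, 15 or 30 min. The cleavage Z-score compares sequencing counts of released DNA with furin-free reactions on a log scale, with lowess adjustment and median absolute deviation scaling.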

The chains behind the UniProt entries cited, without tags or fusion partners.
furin, P09958, UniProt P09958, whole entry: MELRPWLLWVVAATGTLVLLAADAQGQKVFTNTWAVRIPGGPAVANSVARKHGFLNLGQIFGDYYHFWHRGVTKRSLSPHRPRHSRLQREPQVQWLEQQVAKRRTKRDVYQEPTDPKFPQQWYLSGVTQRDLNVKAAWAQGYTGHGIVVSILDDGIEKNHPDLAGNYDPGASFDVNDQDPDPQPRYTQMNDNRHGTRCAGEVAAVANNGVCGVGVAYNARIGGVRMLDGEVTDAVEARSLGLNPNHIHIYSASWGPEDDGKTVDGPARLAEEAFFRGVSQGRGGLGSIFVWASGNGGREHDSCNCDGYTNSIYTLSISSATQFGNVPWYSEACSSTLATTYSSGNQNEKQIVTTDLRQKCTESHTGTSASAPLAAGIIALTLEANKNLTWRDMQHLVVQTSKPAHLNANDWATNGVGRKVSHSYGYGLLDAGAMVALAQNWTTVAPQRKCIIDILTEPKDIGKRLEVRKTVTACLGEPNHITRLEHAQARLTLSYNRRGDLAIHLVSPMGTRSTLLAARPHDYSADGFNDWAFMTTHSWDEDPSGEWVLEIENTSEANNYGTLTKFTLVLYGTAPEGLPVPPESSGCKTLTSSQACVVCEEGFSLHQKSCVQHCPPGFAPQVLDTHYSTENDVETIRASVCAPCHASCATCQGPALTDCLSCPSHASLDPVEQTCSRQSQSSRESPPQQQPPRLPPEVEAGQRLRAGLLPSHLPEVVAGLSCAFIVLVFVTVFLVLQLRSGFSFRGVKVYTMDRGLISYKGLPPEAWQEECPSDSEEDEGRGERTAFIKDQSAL

Sequence | furin cleavage Z-score (7.5 min) | furin cleavage Z-score (15 min) | furin cleavage Z-score (30 min)
CAQVPSPEFFAGNASASA [HC1218] | inactive: -1.13 | inactive: -0.661 | inactive: 0.459
CAGCQRCRRSAGNASASA [FS-1197] | 1.39 | 1.55 | 1.46
CALRSRSGRSAGNASASA [FS-57] | active: 4.75 | active: 5.58 | active: 4.32
CANNHVYRRSAGNASASA [FS-834] | – | active: 4.48 | –
CAVRGRVRRAAGNASASA [FS-893] | 2.92 | 2.27 | 1.84
CAEVPCHPPSAGNASASA [HC2379] | 1.73 | 2.57 | 1.61
CAMEECYQHLAGNASASA [HC37] | 3.06 | 1.58 | 2.4
CARHHRDLDEAGNASASA [FS-2676] | 1.7 | 2.24 | 3.13
CARVPRSDGKAGNASASA [FS-3122] | 1.72 | 2.58 | 2.19
CAAPRRLRRAAGNASASA [FS-7] | active: 6.44 | active: 6.75 | active: 5.94
CAVVCCDMSYAGNASASA [HC112] | 1.1 | 1.29 | 1.05
CAQERRLKRIAGNASASA [FS-1556] | 1.75 | 2.01 | 2.6
CANFKRSVASAGNASASA [FS-1847] | inactive: 0.0489 | 1.11 | inactive: 0.734
CATPRRYKRPAGNASASA [FS-1097] | 2.44 | 3.16 | 1.19
CANDDRSKRDAGNASASA [FS-1142] | 2.32 | 2.58 | 2.7
CARIKRQHSSAGNASASA [FS-1898] | active: 4.55 | active: 5.06 | active: 4.01
CAWVKRDTFCAGNASASA [FS-3145] | 2.23 | 1.42 | 1.2
CARLRRRREGAGNASASA [FS-2279] | 1.83 | 1.88 | 1.54
CARSARKSNFAGNASASA [FS-3073] | inactive: -1.18 | inactive: 0.463 | inactive: -0.0584
CASRTQRRGRAGNASASA [HC902] | 3 | 2.48 | 2.1
CAITPCSGSWAGNASASA [HC1824] | inactive: -0.759 | inactive: -0.739 | inactive: -0.66
CARSKKAVWHAGNASASA [FS-2602] | 1.57 | 1.43 | 1.63
CAAKLVALGIAGNASASA [HC863] | inactive: 0.999 | inactive: -2.69 | inactive: 0.907
CARRRRRKKAAGNASASA [FS-1269] | 2.51 | 3.36 | 2.74

Reprinted at random: two records from the list, in no set order.
Sequence | furin cleavage Z-score (7.5 min) | furin cleavage Z-score (15 min) | furin cleavage Z-score (30 min)
CAWVKRDTFCAGNASASA [FS-3145] | 2.23 | 1.42 | 1.2
CAVVCCDMSYAGNASASA [HC112] | 1.1 | 1.29 | 1.05
